Measurements reported in patent US20240182596A1, “ANTI-NAPI2B ANTIBODIES AND ANTIBODY-DRUG-CONJUGATES BASED THEREON, THERAPEUTIC METHODS AND USES THEREOF” (Tubulis GmbH, priority 2022, published 2024).
No constants are given. Whether binding was seen depends on the method and setting. Some results given as binding are weak or reduced against the parent protein; the word gives no strength.

The chains behind the UniProt entries cited, without tags or fusion partners. Where a name states a change or a piece, a line headed by the entry shows the natural chain unless it says otherwise.
UniProt O95436: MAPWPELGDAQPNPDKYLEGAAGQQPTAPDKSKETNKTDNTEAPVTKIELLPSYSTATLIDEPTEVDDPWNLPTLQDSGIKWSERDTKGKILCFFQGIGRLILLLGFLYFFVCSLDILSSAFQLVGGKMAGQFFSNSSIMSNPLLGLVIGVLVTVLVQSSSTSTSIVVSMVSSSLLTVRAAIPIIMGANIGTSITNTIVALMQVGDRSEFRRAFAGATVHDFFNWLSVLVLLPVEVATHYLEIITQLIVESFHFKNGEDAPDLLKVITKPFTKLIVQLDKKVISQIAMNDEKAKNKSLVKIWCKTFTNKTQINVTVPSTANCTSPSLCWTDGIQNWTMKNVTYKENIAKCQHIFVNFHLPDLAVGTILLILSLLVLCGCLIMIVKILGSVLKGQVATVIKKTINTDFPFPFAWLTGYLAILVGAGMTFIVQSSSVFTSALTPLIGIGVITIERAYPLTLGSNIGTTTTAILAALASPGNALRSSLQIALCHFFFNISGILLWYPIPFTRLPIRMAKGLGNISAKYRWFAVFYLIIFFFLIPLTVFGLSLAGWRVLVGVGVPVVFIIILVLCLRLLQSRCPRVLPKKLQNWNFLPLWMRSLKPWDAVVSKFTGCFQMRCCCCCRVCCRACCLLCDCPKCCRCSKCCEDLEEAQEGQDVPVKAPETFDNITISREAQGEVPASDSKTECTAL

Key:
[1] = target: purified recombinant human Napi2b antigen consisting of Napi2b-extracellular-loop2 expressed as Fc-fusion-6-His-tagged protein (human) (UniProt O95436); assay: ELISA on immobilized recombinant human Napi2b extracellular loop 2-Fc-6-His, HRP anti-human kappa detection
[2] = target: human NaPi2b on NaPi2b-positive cell lines OVCAR-3 and HCC-78 (human) (UniProt O95436); assay: flow cytometry on NaPi2b-positive OVCAR-3 cells, Alexa-dye-labeled anti-human IgG H+L secondary antibody, MFI ratio normalized to the non-specific binding control
[3] = target: human NaPi2b on NaPi2b-positive cell lines OVCAR-3 and HCC-78 (human) (UniProt O95436); assay: flow cytometry on NaPi2b-positive HCC-78 cells, Alexa-dye-labeled anti-human IgG H+L secondary antibody, MFI ratio normalized to the non-specific binding control

| Binder | binding [1] | binding [2] | binding [3] |
| --- | --- | --- | --- |
| parental mAb (parental anti-NaPi2b antibody) (antibody, human IgG1, kappa, L234A L235A, V domains shown) VH: EVQLVQSGAEVVKPGASVKMSCKASGYTFTGYNIHWVKQAPGQGLEWIGAIYPGNGDTSYKQKFRGRATLTADTSTSTVYMELSSLRSEDSAVYYCARGETARATFAYWGQGTLVTVSS VL: DIQMTQSPSSLSASVGDRVTITCSASQDIGNFLNWYQQKPGKTVKVLIYYTSSLYSGVPSRFSGSGSGTDYTLTISSLQPEDFATYYCQQYSKLPLTFGQGTKLELKR | binds |  |  |
| AV-15 antibody (antibody, human IgG1, kappa, L234A L235A, V domains shown) VH: EVQLVQSGAEVVKPGASVKMSCKASGYTFTGYNIHWVKQAPGQGLEWIGAIYPGNGDTSYKQKFRGRATLTADTSTSTVYMELSSLRSEDSAVYYCARGETARATFAYWGQGTLVTVSS VL: DIQMTQSPSSLSASVGDRVTITCSASQDIGKFLNWYQQKPGKTVKVLIYYSSSLYSGVPSRFSGSGSGTDYTLTISSLQPEDFATYYCQQYSKVPLTFGQGTKLELKR | binds |  |  |
| AV-18 antibody (antibody, human IgG1, kappa, L234A L235A, V domains shown) VH: EVQLVQSGAEVVKPGASVKMSCKASGYTFTGYIIHWVKQAPGQGLEWIGAIYPGSGATSYKQKFRGRATLTADTSTSTVYMELSSLRSEDSAVYYCARGETARATFAYWGQGTLVTVSS VL: DIQMTQSPSSLSASVGDRVTITCSASQDIGNFLNWYQQKPGKTVKVLIYYTSSLYSGVPSRFSGSGSGTDYTLTISSLQPEDFATYYCQQYSKLPLTFGQGTKLELKR | binds |  |  |
| AV-21 antibody (antibody, human IgG1, kappa, L234A L235A, V domains shown) VH: EVQLVQSGAEVVKPGASVKMSCKASGYTFTGQIIHWVKQAPGQGLEWIGAISPGNSGTSYKQKFRGRATLTADTSTSTVYMELSSLRSEDSAVYYCARGETARATFAYWGQGTLVTVSS VL: DIQMTQSPSSLSASVGDRVTITCSASQDIGNFLNWYQQKPGKTVKVLIYYTSSLYSGVPSRFSGSGSGTDYTLTISSLQPEDFATYYCQQYSKLPLTFGQGTKLELKR | binds |  |  |
| AV-29 antibody (antibody, human IgG1, kappa, L234A L235A, V domains shown) VH: EVQLVQSGAEVVKPGASVKMSCKASGYTFTGYNILWVKQAPGQGLEWIGAIYPGNGGTSYKQKFRGRATITADTSTSTVYMELSSLRSEDSAVYYCARGEIARATFAYWGQGTLVTVSS VL: DIQMTQSPSSLSASVGDRVTITCSASQDIGNFLNWYQQKPGKTVKVLIYYASSLYSGVPSRFSGSGSGTDYTLTISSLQPEDFATYYCQQYSKLPLTFGQGTKLELKR | binds |  |  |
| Upifitamab (antibody, human IgG1, kappa, L234A L235A, V domains shown) VH: EVQLVQSGAEVVKPGASVKMSCKASGYTFTGYNIHWVKQAPGQGLEWIGAIYPGNGDTSYKQKFRGRATLTADTSTSTVYMELSSLRSEDSAVYYCARGETARATFAYWGQGTLVTVSS VL: DIQMTQSPSSLSASVGDRVTITCSASQDIGNFLNWYQQKPGKTVKVLIYYTSSLYSGVPSRFSGSGSGTDYTLTISSLQPEDFATYYCQQYSKLPLTFGQGTKLELKR |  | binds | binds |
